Measurements: patent US20030162221A1
No constants are given. Whether binding was seen depends on the method and setting. Binding seen in cells or lysates may run through a third protein. Some results given as binding are weak or reduced against the parent protein; the word gives no strength. Where a sequence is shown, tags or fusion partners need not be part of it.

The chains behind the UniProt entries cited, without tags or fusion partners.
UniProt P32598: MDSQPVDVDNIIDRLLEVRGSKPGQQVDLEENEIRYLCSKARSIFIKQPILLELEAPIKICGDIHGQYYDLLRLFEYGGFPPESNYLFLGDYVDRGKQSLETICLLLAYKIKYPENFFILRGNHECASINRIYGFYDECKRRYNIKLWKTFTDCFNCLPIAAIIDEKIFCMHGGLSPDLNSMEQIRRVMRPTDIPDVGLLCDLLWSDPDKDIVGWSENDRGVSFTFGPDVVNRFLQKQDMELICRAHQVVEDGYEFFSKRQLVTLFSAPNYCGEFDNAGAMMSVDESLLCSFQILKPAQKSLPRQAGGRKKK

Tests used:
Experiment in all cases: anti-FLAG co-IP, LC-MS/MS
[1] = target: T1, Cft1 (Saccharomyces cerevisiae) (UniProt Q06632)
T1 sequence (looked up): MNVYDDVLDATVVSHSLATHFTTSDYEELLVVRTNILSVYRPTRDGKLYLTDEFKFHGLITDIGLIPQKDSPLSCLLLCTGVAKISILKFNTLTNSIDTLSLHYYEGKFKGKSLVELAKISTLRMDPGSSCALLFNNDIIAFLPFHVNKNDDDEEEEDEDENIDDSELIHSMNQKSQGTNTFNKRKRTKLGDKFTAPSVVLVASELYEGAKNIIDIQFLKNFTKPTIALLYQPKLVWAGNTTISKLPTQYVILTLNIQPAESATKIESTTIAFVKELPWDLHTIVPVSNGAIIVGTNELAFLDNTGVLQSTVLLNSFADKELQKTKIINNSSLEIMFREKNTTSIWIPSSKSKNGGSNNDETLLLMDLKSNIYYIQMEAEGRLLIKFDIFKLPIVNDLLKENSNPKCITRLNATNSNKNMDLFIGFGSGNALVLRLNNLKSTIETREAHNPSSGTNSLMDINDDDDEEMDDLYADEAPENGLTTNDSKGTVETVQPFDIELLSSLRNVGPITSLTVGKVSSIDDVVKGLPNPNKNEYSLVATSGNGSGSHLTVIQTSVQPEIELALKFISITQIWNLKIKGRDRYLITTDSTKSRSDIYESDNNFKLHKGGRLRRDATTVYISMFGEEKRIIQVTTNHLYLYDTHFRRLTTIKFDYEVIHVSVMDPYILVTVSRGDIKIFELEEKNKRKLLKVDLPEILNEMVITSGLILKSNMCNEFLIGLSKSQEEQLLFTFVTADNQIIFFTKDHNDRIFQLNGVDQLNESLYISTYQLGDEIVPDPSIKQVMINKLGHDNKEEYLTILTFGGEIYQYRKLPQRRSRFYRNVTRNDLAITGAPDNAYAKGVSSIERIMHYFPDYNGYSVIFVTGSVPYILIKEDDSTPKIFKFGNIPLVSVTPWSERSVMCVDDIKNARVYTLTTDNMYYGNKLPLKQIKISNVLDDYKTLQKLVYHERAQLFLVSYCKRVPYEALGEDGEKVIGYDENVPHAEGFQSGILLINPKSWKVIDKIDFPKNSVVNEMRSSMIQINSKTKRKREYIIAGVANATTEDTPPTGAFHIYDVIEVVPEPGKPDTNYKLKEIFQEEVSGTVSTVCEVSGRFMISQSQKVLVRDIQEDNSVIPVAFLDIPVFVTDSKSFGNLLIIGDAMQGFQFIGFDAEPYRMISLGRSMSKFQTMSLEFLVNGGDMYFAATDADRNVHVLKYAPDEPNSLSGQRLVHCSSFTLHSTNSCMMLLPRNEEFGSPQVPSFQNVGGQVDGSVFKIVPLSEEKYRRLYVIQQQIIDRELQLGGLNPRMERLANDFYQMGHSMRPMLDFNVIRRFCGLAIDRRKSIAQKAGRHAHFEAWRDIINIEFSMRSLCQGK

[2] = target: T2, Kel1 (Saccharomyces cerevisiae) (UniProt P38853)
T2 sequence (looked up): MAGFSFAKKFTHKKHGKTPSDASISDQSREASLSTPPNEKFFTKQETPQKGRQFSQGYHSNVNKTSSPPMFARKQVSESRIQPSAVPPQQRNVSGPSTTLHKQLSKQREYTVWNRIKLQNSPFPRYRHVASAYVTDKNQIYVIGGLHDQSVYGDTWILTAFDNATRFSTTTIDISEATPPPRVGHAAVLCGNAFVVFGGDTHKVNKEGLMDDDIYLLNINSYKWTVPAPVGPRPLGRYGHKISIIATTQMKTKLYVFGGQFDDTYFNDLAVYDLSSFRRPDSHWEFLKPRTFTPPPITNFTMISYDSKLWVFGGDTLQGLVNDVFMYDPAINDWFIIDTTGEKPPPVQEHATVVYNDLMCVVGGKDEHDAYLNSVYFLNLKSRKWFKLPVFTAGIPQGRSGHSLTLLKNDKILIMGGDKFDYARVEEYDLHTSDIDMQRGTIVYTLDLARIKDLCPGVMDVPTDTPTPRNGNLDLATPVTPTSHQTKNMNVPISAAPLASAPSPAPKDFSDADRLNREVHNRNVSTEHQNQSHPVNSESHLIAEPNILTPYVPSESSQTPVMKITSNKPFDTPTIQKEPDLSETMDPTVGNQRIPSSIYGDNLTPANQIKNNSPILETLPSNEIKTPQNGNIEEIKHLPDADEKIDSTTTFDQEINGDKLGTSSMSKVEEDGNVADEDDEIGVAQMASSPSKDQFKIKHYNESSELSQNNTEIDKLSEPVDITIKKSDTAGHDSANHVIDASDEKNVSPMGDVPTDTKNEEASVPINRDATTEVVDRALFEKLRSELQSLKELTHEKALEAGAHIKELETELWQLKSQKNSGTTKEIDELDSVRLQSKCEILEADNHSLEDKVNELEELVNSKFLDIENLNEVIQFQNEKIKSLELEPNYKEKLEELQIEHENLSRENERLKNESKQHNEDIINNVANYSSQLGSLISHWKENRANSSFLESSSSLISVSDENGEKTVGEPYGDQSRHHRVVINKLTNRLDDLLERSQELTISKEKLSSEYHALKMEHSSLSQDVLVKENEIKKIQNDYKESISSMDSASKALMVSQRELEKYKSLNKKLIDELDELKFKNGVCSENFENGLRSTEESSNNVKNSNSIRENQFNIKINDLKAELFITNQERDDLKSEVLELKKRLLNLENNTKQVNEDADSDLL

[3] = target: T3, Fip1 (Saccharomyces cerevisiae) (UniProt P45976)
T3 sequence (looked up): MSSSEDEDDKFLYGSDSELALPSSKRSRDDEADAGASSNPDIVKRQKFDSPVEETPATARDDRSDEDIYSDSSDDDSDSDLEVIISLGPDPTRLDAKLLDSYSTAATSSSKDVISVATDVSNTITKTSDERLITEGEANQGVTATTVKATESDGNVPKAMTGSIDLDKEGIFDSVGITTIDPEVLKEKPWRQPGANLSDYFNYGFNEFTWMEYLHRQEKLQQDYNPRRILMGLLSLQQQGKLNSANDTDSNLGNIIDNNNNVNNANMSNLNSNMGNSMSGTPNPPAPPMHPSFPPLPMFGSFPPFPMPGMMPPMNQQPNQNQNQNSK

- binding [1]: binds
- binding [2]: binds
- binding [3]: binds
Substance: Glc7 (from UniProt P32598 1-312)
